Among the data in PMC11345648 are binding values, retold here.

Protein sequences, listed by entry. Tags and fused reporters are not part of them.
UniProt P42568: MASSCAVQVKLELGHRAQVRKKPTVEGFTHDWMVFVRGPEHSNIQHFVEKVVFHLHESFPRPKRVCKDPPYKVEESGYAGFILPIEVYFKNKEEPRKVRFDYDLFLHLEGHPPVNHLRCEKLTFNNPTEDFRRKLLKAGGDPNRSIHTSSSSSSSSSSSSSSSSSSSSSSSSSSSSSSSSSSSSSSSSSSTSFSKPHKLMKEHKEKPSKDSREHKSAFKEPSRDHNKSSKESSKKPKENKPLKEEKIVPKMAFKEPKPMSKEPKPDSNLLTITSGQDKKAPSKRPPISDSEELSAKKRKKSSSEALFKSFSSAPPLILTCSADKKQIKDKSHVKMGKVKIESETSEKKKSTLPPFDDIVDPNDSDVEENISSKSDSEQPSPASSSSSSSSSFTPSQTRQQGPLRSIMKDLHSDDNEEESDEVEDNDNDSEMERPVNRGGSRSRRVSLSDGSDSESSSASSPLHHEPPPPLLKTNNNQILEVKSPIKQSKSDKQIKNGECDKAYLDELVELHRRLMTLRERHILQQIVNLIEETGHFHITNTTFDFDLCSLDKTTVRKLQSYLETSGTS
UniProt Q9UBL3: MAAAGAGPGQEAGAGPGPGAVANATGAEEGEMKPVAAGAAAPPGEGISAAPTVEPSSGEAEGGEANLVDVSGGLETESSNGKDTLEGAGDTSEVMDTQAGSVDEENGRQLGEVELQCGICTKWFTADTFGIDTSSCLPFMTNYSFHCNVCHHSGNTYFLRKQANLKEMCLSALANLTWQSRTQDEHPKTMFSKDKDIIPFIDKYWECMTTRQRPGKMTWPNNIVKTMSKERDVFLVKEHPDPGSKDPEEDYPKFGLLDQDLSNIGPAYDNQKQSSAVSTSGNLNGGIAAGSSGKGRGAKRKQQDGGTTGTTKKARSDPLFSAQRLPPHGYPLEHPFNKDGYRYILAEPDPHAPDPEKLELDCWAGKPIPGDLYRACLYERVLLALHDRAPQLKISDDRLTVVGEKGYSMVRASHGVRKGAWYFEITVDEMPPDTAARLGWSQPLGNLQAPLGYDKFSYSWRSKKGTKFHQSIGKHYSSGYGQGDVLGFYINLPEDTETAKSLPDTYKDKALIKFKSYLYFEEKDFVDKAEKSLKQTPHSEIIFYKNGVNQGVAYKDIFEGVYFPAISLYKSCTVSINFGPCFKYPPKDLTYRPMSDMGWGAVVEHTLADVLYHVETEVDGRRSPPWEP
UniProt Q9C005: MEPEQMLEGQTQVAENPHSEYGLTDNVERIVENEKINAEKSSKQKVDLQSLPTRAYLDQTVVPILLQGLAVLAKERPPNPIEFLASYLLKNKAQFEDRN
UniProt Q9UMN6: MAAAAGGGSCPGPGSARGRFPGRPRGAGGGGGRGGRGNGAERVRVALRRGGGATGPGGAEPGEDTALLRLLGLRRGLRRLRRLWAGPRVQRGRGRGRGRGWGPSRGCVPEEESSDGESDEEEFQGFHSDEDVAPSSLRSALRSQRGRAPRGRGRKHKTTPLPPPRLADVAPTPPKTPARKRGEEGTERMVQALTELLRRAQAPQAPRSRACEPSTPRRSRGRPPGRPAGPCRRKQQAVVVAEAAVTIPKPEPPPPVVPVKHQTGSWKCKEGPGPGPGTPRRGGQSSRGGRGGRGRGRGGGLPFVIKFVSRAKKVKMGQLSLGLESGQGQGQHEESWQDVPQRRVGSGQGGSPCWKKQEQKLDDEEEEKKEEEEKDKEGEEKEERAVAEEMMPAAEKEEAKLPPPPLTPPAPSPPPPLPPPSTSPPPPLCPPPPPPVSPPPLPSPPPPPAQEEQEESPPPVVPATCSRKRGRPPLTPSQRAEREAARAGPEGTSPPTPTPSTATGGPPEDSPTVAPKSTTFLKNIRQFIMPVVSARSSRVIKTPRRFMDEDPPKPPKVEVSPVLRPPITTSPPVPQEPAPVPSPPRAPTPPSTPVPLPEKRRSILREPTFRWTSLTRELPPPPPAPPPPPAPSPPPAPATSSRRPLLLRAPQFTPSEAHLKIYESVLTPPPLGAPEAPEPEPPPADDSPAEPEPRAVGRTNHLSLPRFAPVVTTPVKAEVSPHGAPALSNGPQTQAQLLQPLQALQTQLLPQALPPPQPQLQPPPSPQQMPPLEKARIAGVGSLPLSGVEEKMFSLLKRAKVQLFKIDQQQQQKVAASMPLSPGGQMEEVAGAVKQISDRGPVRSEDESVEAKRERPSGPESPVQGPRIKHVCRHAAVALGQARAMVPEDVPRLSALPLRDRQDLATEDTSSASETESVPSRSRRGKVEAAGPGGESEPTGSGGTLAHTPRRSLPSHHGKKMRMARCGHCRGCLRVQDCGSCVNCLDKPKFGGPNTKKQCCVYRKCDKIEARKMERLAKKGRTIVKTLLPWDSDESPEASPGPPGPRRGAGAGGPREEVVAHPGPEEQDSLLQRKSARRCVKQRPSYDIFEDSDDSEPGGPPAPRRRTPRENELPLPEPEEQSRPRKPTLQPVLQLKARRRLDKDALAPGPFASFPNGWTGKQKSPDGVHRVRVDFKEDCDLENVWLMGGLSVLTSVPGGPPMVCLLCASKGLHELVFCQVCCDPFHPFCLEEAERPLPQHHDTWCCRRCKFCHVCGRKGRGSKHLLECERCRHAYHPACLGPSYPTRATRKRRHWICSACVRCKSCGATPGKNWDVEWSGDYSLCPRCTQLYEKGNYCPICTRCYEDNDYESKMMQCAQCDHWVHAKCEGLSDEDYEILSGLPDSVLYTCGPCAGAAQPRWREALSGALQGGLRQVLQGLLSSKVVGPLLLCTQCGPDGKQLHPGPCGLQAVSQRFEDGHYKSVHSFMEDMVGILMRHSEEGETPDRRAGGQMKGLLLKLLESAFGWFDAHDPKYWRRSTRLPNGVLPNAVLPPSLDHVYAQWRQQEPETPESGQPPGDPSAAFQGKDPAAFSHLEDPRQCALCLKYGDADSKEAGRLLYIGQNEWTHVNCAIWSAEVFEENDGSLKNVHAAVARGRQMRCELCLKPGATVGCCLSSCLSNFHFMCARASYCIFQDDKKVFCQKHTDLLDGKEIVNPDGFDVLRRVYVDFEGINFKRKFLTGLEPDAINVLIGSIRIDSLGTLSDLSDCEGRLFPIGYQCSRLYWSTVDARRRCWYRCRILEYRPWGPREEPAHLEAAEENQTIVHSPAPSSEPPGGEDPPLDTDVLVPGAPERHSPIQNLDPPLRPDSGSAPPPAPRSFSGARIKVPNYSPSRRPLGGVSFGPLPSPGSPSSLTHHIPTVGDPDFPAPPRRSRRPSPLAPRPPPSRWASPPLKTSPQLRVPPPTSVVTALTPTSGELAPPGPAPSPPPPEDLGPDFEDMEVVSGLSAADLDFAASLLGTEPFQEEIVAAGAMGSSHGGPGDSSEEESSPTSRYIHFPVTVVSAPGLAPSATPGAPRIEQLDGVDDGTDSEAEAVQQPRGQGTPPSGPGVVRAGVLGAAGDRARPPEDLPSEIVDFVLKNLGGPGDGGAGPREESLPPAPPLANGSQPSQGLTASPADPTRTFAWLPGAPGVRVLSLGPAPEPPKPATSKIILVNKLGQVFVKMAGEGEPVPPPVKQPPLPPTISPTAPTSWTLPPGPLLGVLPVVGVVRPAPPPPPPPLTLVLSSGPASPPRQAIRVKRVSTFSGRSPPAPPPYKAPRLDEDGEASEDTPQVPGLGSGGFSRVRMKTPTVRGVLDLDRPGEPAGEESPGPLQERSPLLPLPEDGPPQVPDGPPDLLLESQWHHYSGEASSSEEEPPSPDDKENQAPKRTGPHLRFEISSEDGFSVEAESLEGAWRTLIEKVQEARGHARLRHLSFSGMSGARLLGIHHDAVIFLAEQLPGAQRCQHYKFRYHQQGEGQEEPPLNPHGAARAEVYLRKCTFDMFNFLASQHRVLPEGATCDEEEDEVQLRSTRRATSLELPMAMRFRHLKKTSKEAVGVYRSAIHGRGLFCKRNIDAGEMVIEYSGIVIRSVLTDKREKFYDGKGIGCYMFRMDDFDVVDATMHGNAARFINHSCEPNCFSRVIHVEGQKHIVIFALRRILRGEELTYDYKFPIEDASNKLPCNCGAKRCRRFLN
UniProt Q15291: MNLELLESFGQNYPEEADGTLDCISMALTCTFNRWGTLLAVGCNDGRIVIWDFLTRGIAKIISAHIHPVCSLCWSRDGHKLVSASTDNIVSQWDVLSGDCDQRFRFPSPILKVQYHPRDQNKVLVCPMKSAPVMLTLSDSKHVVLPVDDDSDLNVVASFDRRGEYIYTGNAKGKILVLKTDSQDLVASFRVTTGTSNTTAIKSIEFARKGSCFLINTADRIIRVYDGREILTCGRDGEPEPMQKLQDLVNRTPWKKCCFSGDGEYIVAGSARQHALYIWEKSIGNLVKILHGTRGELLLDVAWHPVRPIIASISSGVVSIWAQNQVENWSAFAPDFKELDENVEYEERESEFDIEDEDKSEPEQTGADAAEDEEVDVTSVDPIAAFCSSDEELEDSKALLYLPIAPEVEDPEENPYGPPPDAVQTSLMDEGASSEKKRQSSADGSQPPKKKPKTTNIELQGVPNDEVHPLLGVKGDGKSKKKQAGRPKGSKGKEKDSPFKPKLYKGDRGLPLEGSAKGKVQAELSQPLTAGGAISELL
UniProt O75475: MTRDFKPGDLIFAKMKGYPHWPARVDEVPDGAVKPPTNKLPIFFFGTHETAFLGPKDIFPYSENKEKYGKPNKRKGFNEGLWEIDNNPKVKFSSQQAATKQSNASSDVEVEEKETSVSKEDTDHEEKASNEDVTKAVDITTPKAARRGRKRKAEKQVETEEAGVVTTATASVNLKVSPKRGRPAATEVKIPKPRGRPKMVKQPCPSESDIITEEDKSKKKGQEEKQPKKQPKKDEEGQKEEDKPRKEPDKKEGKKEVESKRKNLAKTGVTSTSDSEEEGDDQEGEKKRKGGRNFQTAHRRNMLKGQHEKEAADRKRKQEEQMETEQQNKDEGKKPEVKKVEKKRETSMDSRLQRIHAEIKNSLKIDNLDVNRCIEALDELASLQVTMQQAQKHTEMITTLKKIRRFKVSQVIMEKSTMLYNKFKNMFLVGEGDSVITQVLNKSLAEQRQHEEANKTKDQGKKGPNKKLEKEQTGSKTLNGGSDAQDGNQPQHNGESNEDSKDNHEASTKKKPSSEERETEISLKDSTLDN
UniProt O00255: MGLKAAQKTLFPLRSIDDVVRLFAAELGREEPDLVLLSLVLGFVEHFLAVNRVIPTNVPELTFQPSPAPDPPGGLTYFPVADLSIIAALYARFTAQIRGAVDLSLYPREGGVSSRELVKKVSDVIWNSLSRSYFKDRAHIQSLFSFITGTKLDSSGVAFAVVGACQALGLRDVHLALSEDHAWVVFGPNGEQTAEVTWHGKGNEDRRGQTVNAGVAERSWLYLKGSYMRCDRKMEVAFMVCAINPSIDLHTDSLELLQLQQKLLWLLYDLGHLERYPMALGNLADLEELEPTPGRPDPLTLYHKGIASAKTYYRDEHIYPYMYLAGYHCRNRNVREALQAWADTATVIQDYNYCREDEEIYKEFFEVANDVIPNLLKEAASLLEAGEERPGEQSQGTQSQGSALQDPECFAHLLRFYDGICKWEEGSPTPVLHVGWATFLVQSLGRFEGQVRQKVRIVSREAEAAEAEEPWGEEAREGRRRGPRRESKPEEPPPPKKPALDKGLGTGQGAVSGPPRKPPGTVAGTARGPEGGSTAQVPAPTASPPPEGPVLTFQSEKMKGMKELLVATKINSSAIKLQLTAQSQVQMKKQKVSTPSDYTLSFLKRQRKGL

These are yes or no findings as the source states them, for the method shown. Binding seen in cells or lysates may run through a third protein. A yes stands for co-enrichment or nearness to the bait. Other partners may have been found.

This experiment has as its target AF9 (human (endogenous in HEL)) (UniProt P42568). The experiment is described as follows: affinity purification with mass spectrometry; large-scale coimmunoprecipitation from nuclear extract of HEL cells with the AF9-N antibody (rabbit IgG as control); immunoprecipitated proteins analysed by mass spectrometry.

On to ASH2L (from UniProt Q9UBL3 1-628), for which the binding entry is “binds”.

Regarding DPY30 (from UniProt Q9C005 1-99), the binding result was “binds”. The same measure for KMT2B (from UniProt Q9UMN6 1-2715): “binds”; for RBBP5 (from UniProt Q15291 1-538): “binds”. In the case of “lens epithelium derived growth factor (from UniProt O75475 1-530)”, the binding result is reported as “binds”. In the case of menin (from UniProt O00255 1-610), the binding result is recorded as “binds”.
